# Assay results from publication PMC3377538.
# Sequences of proteins named here, by UniProt entry; tags and fusion partners are left off.
# UniProt Q13950: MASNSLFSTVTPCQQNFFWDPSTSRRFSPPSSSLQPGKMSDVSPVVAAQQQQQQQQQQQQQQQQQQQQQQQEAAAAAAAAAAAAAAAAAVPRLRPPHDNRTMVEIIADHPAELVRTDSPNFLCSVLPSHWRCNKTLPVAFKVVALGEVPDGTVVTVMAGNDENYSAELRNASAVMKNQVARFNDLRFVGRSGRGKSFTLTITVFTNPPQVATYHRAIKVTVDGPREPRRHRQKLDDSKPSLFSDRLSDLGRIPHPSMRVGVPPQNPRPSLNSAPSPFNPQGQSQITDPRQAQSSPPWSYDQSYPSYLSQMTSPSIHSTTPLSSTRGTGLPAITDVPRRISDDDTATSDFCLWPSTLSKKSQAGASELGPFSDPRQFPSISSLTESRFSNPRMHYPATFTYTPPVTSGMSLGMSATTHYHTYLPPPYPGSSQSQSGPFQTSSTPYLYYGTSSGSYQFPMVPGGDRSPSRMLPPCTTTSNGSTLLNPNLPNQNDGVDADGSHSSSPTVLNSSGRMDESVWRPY
# No constants are given. Whether binding was seen depends on the method and setting. Binding seen in cells or lysates may run through a third protein. Some binding calls cover weakened binding; strength is not graded here. Sequences can lack the tags named with a protein.
# Target: T1, histone H3K9-specific methyltransferase Suv39h1 (human (endogenous in H1299)) (UniProt O43463)
# T1 sequence: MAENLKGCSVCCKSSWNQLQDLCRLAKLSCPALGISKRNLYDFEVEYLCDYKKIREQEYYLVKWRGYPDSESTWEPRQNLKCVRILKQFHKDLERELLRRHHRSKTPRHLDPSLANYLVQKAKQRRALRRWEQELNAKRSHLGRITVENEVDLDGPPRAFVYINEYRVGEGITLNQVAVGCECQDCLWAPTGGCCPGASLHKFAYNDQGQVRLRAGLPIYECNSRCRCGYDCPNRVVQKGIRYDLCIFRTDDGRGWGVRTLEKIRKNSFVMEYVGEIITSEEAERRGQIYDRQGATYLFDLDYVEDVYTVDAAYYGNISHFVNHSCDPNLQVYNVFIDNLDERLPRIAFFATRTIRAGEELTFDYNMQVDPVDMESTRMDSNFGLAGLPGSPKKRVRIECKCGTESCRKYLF
# Assay: co-IP; H1299 whole cell lysates (50 mM NaCl, 50 mM Tris pH 8.0, 1% NP-40) incubated overnight at 4°C with Runx2 (M-70), Suv39h1 or control IgG antibodies; protein A/G beads; blots with Runx2 and Suv39h1 antibodies
substance,measurement,value
Runt-related transcription factor Runx2 (from UniProt Q13950 1-521),binding,binds
